Measured values: publication PMC12241534
These are yes or no findings as the source states them, for the method shown. Binding seen in cells or lysates may run through a third protein. Some binding calls cover weakened binding; strength is not graded here. Where a sequence is shown, tags or fusion partners need not be part of it. Blank lines part the entries; values can stand above or below the binder they belong to.

Assays:
GST-Myc-USP29 (human) = molecular target: T1, GST-Myc-USP29 (human) (UniProt Q9HBJ7); experiment: pull-down; GST-tagged protein (GST-Myc-TAK1, GST-Myc-USP29 or GST-Myc) captured from transfected HEK293T lysate on Glutathione MagBeads (2 h, room temperature), then incubated with total protein overnight at 4 °C; Western blot; only the target purified
T1 sequence: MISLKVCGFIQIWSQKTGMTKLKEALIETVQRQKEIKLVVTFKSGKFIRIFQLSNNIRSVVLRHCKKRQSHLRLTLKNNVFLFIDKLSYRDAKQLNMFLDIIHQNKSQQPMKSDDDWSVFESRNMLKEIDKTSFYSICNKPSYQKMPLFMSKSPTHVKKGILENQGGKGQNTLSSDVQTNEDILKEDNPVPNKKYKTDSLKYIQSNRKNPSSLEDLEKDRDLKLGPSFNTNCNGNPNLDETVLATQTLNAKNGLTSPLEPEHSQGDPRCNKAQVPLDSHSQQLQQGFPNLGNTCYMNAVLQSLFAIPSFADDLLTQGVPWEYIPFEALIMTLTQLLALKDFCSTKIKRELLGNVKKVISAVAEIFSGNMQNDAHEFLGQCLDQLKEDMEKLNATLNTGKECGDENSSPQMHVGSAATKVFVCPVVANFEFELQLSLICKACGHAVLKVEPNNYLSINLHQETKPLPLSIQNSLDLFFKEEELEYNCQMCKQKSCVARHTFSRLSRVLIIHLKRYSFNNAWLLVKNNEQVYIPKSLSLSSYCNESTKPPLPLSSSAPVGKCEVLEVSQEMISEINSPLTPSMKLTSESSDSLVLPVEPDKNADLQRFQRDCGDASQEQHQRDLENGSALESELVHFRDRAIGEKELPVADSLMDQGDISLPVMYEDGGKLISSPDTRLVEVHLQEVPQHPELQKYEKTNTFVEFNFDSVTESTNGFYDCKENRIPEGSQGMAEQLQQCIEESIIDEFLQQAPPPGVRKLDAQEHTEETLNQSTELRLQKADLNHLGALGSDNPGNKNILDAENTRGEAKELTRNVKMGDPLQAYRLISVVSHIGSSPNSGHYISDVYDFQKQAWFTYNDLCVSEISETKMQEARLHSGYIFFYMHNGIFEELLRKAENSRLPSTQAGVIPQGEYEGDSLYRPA

GST-Myc-TAK1 (human) = molecular target: T2, GST-Myc-TAK1 (human) (UniProt O43318); experiment: as above
T2 sequence: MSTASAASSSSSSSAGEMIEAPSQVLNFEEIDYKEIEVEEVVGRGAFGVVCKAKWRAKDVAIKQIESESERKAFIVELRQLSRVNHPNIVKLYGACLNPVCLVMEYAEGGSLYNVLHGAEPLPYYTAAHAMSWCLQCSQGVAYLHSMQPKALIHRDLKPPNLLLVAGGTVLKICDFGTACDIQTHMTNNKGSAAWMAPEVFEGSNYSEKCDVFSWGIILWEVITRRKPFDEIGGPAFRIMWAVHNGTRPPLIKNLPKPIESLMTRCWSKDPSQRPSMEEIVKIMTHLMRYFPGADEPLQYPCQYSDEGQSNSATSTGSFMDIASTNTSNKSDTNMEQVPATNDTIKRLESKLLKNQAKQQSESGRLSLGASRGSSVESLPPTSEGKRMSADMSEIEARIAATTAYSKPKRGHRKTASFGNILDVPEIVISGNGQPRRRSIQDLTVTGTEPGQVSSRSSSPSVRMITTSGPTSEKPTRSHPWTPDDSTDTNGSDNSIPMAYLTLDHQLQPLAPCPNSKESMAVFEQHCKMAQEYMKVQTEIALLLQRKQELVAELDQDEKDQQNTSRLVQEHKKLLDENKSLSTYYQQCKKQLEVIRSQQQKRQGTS

[1] = molecular target: T3, Myc-TAK1 (transforming growth factor beta-activated kinase 1) (human) (UniProt O43318); experiment: co-IP; HEK293T cells co-transfected with Flag-USP29 and Myc-TAK1 for 48 h; lysate incubated with Flag or Myc antibody at 4 °C for 4 h, then Protein A/G magnetic beads overnight at 4 °C; Western blot
T3 sequence: T2 sequence

binding (GST-Myc-USP29 (human)): binds
B1: Flag-TAK1 (enzyme, UniProt O43318 1-606)
chain: T2 sequence

binding (GST-Myc-TAK1 (human)): binds
binding [1]: binds
B2: Flag-USP29 (ubiquitin-specific peptidase 29) (enzyme, UniProt Q9HBJ7 1-922)
chain: T1 sequence
